Four molecules from doi:10.1101/2024.11.04.621823 can be followed below.

The target of assay [1] is HP1α chromoshadow domain (CSD; aa 110-191). The assay is described as follows: ITC.
Assay [2] addresses HP1α chromodomain (CD; aa 18-75). The assay is described as follows: ITC. (Isothermal titration calorimetry measures the heat released or taken up as one component is titrated into another.)

These are yes or no findings as the source states them, for the method shown. A result given as binding can be weak or reduced; the word gives no strength.

B1: Agno (aa 2-21) (peptide)
peptide: VLRQLSRKASVKVSKTWSGT
As for B1, in assay [1], the binding result is listed as “binds”.

B2: Agno A10/L (aa 2-21) (peptide)
peptide: VLRQLSRKLSVKVSKTWSGT
In the case of B2, in assay [1], the binding entry is “binds”.

B3: AgnoK9me2 (aa 2-18) (peptide)
peptide: VLRQLSRKASVKVSKTW
modifications: dimethyl-lysine at K9 (Kme2)
Consider B3, for which the binding result in assay [2] is listed as “binds”.

B4: Agno V14/A (aa 2-21) (peptide)
peptide: VLRQLSRKASVKASKTWSGT
For the molecule B4, the binding entry in assay [1] was “binds”.
